Test results taken from the supplement of paper PMC10849652.
This is one part of the list.

Protein sequences, listed by entry. Tags and fused reporters are not part of them. Lines headed by an entry give the natural chain unless they say otherwise; changes in a name come on top.
UniProt Q96CS3: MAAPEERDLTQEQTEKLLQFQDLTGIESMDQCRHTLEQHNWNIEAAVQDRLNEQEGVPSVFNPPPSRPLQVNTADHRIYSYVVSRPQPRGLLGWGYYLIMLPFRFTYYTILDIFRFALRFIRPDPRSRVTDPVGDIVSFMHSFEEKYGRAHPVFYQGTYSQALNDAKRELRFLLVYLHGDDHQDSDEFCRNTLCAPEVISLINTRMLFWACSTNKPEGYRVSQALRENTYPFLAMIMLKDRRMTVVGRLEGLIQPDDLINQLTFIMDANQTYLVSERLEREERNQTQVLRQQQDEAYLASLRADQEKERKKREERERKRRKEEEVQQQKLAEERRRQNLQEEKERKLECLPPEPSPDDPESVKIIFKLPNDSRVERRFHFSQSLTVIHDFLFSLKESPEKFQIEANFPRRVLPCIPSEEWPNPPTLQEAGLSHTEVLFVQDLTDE
UniProt Q96DZ1: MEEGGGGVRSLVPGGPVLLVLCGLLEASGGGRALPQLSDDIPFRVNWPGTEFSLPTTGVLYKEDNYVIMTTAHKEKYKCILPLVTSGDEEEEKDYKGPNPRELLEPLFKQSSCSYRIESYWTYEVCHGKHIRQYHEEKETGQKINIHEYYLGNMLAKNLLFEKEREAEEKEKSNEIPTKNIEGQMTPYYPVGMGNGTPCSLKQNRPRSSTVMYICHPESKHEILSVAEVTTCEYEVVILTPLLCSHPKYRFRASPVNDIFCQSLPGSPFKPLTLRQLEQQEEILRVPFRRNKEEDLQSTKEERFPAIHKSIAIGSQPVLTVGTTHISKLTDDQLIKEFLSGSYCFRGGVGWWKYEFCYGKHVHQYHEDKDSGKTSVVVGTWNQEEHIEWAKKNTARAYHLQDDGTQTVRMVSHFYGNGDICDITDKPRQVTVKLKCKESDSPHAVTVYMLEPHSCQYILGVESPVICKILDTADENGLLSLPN
UniProt P19447: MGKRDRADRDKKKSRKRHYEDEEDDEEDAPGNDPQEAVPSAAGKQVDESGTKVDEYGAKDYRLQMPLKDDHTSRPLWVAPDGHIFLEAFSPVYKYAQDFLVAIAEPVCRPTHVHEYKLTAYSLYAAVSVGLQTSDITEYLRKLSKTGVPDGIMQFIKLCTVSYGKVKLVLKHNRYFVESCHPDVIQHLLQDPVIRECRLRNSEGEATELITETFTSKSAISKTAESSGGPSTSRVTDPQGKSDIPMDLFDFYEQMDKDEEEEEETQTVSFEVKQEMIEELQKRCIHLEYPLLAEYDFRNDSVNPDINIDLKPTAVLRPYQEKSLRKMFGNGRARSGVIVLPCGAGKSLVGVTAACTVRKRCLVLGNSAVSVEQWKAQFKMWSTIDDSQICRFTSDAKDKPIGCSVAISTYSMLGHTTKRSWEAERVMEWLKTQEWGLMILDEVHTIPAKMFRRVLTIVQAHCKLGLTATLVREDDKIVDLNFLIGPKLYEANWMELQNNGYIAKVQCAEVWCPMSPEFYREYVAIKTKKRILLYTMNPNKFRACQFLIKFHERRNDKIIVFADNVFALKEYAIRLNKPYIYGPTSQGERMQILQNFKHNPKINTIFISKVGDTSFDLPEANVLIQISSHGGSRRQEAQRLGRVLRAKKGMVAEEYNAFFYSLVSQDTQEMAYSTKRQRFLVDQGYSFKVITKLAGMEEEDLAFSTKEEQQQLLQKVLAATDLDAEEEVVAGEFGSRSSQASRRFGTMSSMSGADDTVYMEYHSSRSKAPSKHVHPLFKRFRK
UniProt Q9BS26: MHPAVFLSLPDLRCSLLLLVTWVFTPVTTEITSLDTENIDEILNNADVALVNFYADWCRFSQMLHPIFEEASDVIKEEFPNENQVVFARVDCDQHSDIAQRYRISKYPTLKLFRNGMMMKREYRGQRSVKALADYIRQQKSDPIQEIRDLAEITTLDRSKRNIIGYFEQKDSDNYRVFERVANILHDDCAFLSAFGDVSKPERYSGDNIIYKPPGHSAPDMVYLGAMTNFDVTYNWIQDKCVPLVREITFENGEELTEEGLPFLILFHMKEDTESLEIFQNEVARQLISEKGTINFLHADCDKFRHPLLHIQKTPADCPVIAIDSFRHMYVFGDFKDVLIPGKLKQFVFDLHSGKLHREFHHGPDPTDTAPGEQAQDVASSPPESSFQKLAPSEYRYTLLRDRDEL
UniProt Q16134: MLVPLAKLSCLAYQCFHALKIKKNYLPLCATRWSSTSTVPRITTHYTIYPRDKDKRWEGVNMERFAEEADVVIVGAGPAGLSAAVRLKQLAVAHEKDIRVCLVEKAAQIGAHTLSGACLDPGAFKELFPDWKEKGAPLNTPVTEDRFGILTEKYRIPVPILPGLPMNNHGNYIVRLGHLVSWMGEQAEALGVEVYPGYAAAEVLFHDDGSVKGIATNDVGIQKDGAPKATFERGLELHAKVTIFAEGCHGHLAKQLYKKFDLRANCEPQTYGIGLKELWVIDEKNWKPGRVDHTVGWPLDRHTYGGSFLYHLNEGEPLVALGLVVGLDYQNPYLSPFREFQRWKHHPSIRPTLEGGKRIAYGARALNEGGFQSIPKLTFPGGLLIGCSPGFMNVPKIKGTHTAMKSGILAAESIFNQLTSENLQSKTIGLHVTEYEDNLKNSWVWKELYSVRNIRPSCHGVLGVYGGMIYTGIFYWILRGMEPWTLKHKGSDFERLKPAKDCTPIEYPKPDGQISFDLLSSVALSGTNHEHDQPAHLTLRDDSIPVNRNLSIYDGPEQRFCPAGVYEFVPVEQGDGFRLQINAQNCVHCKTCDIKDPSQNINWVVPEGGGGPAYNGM
UniProt Q9NZB2: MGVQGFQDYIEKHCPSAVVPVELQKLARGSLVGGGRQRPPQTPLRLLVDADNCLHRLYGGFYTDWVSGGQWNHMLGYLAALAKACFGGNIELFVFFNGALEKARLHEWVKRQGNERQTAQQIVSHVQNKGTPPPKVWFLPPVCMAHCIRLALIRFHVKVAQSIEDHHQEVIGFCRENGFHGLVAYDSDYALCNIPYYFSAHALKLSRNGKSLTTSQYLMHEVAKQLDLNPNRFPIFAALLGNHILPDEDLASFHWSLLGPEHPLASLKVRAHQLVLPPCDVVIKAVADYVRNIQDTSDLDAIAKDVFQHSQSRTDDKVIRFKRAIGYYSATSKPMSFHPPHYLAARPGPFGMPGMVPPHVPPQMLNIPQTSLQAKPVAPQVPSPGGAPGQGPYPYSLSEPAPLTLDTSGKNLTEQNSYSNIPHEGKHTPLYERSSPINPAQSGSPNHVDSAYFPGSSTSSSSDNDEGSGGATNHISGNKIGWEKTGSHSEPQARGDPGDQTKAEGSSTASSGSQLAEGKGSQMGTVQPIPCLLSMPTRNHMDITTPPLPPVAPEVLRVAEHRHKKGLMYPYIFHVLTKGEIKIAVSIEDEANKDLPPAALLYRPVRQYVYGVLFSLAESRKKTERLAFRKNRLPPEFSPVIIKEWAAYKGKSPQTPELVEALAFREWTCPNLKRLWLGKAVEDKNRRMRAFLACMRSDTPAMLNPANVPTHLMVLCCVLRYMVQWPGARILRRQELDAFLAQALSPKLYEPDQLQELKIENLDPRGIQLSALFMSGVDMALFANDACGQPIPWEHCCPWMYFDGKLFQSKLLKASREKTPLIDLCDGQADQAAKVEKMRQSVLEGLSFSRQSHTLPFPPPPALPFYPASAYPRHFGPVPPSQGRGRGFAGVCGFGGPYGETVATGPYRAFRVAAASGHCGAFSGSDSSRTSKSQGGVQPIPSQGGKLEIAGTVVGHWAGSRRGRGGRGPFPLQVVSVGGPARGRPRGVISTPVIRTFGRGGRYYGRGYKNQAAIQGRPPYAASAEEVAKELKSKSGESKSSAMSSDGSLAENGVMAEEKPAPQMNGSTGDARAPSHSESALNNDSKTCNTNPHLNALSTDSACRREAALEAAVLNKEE
UniProt Q96E09: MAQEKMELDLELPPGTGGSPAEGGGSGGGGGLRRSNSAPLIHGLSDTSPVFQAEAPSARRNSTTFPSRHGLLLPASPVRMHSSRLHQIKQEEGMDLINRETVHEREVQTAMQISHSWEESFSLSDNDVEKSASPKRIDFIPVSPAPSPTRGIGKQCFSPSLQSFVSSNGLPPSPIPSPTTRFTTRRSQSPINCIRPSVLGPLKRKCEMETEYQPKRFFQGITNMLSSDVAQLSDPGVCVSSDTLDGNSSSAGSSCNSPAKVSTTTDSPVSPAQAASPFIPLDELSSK
UniProt Q96A26: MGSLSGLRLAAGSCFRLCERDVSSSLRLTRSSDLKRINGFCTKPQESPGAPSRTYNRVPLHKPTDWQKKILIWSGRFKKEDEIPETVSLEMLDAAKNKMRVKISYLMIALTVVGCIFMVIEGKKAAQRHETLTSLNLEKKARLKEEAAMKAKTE
UniProt Q2NKX8: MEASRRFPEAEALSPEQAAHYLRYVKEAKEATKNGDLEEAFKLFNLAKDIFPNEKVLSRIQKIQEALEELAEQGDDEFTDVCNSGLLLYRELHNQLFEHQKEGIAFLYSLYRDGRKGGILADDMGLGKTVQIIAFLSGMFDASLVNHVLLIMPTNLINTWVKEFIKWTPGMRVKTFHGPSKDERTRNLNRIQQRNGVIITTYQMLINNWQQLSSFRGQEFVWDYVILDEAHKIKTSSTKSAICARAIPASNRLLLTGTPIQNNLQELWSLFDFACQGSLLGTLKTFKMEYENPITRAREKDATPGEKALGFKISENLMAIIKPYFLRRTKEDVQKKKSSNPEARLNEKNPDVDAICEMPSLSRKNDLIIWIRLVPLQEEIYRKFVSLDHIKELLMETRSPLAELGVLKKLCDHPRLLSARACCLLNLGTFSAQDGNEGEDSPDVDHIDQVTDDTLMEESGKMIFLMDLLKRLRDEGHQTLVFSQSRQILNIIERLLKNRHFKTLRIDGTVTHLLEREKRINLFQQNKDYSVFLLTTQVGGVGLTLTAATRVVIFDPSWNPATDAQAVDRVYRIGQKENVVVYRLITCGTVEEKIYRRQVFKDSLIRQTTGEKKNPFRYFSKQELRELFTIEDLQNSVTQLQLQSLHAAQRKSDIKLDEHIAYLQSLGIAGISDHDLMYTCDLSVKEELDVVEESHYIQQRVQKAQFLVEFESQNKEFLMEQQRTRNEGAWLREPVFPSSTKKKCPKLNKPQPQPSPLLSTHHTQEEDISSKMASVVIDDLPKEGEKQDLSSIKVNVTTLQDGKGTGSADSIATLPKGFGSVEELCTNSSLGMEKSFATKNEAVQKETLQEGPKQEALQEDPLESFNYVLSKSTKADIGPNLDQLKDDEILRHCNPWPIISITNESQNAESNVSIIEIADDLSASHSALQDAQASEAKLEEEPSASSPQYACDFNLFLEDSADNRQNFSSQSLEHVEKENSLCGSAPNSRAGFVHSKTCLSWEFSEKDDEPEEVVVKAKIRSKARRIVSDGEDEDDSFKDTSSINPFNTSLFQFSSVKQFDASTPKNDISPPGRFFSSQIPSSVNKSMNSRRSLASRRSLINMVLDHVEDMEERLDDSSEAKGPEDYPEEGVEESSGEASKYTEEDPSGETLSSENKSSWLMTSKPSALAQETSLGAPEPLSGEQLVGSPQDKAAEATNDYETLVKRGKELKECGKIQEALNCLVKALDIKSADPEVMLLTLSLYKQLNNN
UniProt Q9HBU6: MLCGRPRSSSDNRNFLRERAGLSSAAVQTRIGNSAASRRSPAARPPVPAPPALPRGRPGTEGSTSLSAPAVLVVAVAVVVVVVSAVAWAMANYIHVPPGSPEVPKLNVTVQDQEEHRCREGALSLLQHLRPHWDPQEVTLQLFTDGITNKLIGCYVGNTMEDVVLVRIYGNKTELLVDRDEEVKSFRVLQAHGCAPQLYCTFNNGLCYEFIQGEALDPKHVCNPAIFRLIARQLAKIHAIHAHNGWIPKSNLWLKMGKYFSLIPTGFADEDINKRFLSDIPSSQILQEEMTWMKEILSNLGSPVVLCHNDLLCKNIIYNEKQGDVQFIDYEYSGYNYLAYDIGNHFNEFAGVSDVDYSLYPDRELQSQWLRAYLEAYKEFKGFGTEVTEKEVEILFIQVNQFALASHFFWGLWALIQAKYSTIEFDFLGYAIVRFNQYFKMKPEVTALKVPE
UniProt O43414: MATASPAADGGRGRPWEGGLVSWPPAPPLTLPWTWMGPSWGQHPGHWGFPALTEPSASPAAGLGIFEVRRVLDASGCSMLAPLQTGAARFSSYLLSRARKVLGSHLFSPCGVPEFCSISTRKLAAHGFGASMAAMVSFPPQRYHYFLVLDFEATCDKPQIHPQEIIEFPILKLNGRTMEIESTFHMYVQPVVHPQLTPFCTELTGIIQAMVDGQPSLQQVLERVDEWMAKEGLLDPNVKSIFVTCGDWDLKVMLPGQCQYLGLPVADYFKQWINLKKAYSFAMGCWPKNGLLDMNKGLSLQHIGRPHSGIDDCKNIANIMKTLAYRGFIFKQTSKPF
UniProt P84090, whole entry, looked up: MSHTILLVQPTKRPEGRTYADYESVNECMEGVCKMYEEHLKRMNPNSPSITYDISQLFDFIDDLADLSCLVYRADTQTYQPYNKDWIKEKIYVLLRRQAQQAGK
UniProt Q01469, whole entry, looked up: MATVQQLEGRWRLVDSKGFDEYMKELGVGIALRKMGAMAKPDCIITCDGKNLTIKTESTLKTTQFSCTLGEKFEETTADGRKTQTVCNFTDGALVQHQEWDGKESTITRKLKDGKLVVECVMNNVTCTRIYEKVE

Columns and labels:
Experiment in all cases: log2 fold change, soluble protein after heating vs DMSO (PISA); higher = thermal stabilisation; K562 cells, 10 uM, 30 min; active = over 0.2 and 3.5 SD of the protein, either way, in both replicates (recomputed)
[1] = compound: C1=CC=C(C=C1)[C@H](COC2=CC3=C(C=C2)NC(=O)N3)NC(=O)C4=CC=CN(C4=O)CC5=CC(=C(C=C5)F)F
In short: (§1)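 K562 cells at 2×10^6 cells/mL were treated with 10 μM compound for 30 min. Aliquots were heated for 3 min across 48°C-58°C, pooled, and extracted in PBS with 0.5% NP-40 at 4°C; soluble protein was the supernatant after 21,000xg for 90 min. Soluble protein was quantified by TMTpro 16plex LC-MS/MS with channel sums equalised, and reported as log2 fold change in thermal stability against DMSO controls, with values from duplicates.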

[2] = compound: CC1=C(SC2=C1C(=N[C@H](C3=NN=C(N32)C)CC(=O)N)C4=CC=C(C=C4)Cl)C
In short: as §1

[3] = compound: CC1=C2C(=CC=C1)N=C(N(C2=O)C3=CC=CC=C3C)CN4C=NC5=C(N=CN=C54)N
In short: as §1

[4] = compound: Cc1sc2c(c1C)C(c1ccc(Cl)cc1)=N[C@@H](CC(=O)OC(C)(C)C)c1nnc(C)n1-2
In short: as §1

[5] = compound: c1ccc([C@@H]2C[C@H]2NC2CCNCC2)cc1
In short: as §1

Measured: log2 fold change

ERCC8 (UniProt Q13216)
inactive: [1] 0.016 | [2] -0.058 | [3] 0.138 | [4] -0.272 | [5] 0.056

FAF2 (UniProt Q96CS3)
inactive: [1] 0.002 | [2] 0.025 | [3] 0.067 | [4] -0.012 | [5] -0.017

EZH2 isoform 2 (UniProt Q15910)
inactive: [1] 0.023 | [2] -0.056 | [3] -0.14 | [4] 0.016 | [5] -0.034

FAM117A (UniProt Q9C073)
inactive: [1] -0.004 | [2] 0.057 | [3] 0.027 | [4] 0.01 | [5] 0.012

ERGIC3 isoform 3 (UniProt Q9Y282)
inactive: [1] -0.001 | [2] -0.016 | [3] -0.004 | [4] -0.014 | [5] 0.03

EWSR1 isoform 5 (UniProt Q01844)
inactive: [1] 0.062 | [2] -0.062 | [3] -0.004 | [4] 0.016 | [5] 0.021

ERLEC1 (UniProt Q96DZ1)
inactive: [1] 0.039 | [2] 0.013 | [3] 0.041 | [4] -0.039 | [5] -0.023

ERCC3 (UniProt P19447)
inactive: [1] -0.203 | [2] -0.059 | [3] 0.028 | [4] -0.277 | [5] -0.042

ERP44 (UniProt Q9BS26)
inactive: [1] 0.065 | [2] 0.01 | [3] 0.001 | [4] 0.004 | [5] -0.015

ETFDH (UniProt Q16134)
inactive: [1] -0.034 | [2] 0.044 | [3] 0.074 | [4] -0.056 | [5] -0.028

FAH isoform 2 (UniProt P16930)
inactive: [1] -0.198 | [2] 0.06 | [3] 0.016 | [4] -0.027 | [5] 0.005

EXOSC1 (UniProt Q9Y3B2)
inactive: [1] 0.002 | [2] -0.106 | [3] -0.116 | [4] 0.033 | [5] -0.027

FAM120A isoform 6 (UniProt Q9NZB2)
inactive: [1] 0.103 | [2] -0.205 | [3] -0.2 | [4] 0.183 | [5] 0.031

ESYT2 isoform 2 (UniProt A0FGR8)
inactive: [1] 0.002 | [2] 0.054 | [3] 0.042 | [4] 0.001 | [5] -0.013

FAM122A (UniProt Q96E09)
inactive: [1] 0.008 | [2] -0.055 | [3] -0.022 | [4] 0.158 | [5] 0.083

FAM162A (UniProt Q96A26)
inactive: [1] 0.043 | [2] 0.051 | [3] 0.129 | [4] -0.022 | [5] -0.026

EPPK1 (UniProt P58107)
inactive: [1] 0.135 | [2] -0.217 | [3] -0.172 | [4] 0.289 | [5] 0.027

ERCC6L (UniProt Q2NKX8)
inactive: [1] -0.118 | [2] -0.021 | [3] 0.097 | [4] 0.164 | [5] 0.061

ERMAP (UniProt Q96PL5)
inactive: [1] -0.047 | [2] -0.008 | [3] 0.065 | [4] -0.045 | [5] 0.027

EXOSC2 (UniProt Q13868)
inactive: [1] 0.047 | [2] -0.004 | [3] 0.066 | [4] -0.033 | [5] 0.028

ESD (UniProt P10768)
inactive: [1] 0.002 | [2] 0.022 | [3] 0.05 | [4] -0.05 | [5] 0.016

ETNK1 (UniProt Q9HBU6)
inactive: [1] 0 | [2] 0.044 | [3] 0.071 | [4] -0.092 | [5] 0.022

ERI3 (UniProt O43414)
inactive: [1] -0.099 | [2] 0.025 | [3] 0.06 | [4] -0.023 | [5] 0.008

ERH (UniProt P84090)
inactive: [1] 0.173 | [2] 0.051 | [3] -0.057 | [4] -0.064 | [5] -0.048

EXOSC6 (UniProt Q5RKV6)
inactive: [1] 0.05 | [2] -0.016 | [3] -0.044 | [4] -0.037 | [5] 0.006

2 neighbouring entries already listed, quoted:
ERH (UniProt P84090)
inactive: [1] 0.173 | [2] 0.051 | [3] -0.057 | [4] -0.064 | [5] -0.048

EXOSC6 (UniProt Q5RKV6)
inactive: [1] 0.05 | [2] -0.016 | [3] -0.044 | [4] -0.037 | [5] 0.006

The results go on.

FABP5 (UniProt Q01469)
inactive: [1] -0.044 | [2] -0.005 | [3] -0.05 | [4] -0.007 | [5] -0.018
